## Percent effect of library compounds

The filed quantity is “Percent Effect” (%).
The record does not define 0% and 100%; most values in the screen are far below 50% and negative numbers occur (in some assays of this library far below -100).
The compounds are a random part of those screened.

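Phenotypic screen: M. tuberculosis growth, cholesterol and DPPC medium, 4 days; the read-out is not stated. Compounds at 500 µM. Direction is inferred from retests: higher values go with more growth inhibition. Size under these conditions: about 18,000 compounds, about 900 of them at 50% or above in at least one test.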

- C1CC(N2CCOCC2)CN1 (configuration not stated) | -3.334%
- Cc1csc(NC(=O)CSCc2nnc(C)o2)n1 | -28.74%
- CS(=O)(=O)NCc1ccnc(N2CCCCCC2)c1 | 8.037%
- COCc1nc(C)c(CNC(=O)Cc2ccccn2)s1 | -9.611%
- O=C(CNC(=O)N1CCC1)Nc1ccc(F)c(F)c1 | 12.9%
- O=S(=O)(CCNCc1ccsc1)N1CCOCC1 | 2.894%
- CCC(=O)Nc1ccc2c(c1)C(=O)N(CC(C)C)C2=O | 3.748%
- CC1CS(=O)(=O)CCN1CC(=O)N(C)Cc1ccco1 (configuration not stated) | 7.459%
- CSCCN(C)c1cc([C@H]2C[C@@H](N)C2)nc(N)n1 | -3.141%
- O=C(Cn1cccnc1=O)N1[C@H]2CCNC[C@@H]1CC2 | 14.47%
- CCC(NC(=O)c1cnc(SC)nc1)c1ccnn1C (configuration not stated) | 15.74%
- Cc1nn(C)c(Cl)c1C(=O)NCCCN(C)S(C)(=O)=O | -11.86%
- CCc1nn2c(=O)cc(CN3CCOC(C)C3)nc2s1 (configuration not stated) | -6.206%
- NCC(CO)c1ccc(F)cc1 (configuration not stated) | -2.709%
- N[C@H]1CCN(S(=O)(=O)c2ccc(F)c(C(F)(F)F)c2)C1 | 59.39%
- O=S(=O)(NCc1ccncc1)c1c[nH]c2ncccc12 | 17.32%
- Cc1cnc(C(=O)N2CCC(C)CC2)cn1 | 46.63%
- CCOc1ccc(C(=O)CCN(C)C)cc1 | 114.8%
- COCC(O)CN(C)C(=O)c1cc(C)cc(F)c1 (configuration not stated) | 4.204%
- O=C(NC1CCCc2[nH]c(=O)ccc21)c1ccc(Cl)o1 (configuration not stated) | 5.716%
- COc1cccn(CC(=O)N2CCCCCCC2)c1=O | -27.25%
- CC(C)n1ccnc1CN(C)CC1COCCO1 (configuration not stated) | -3.248%
- OC(CNc1ncc(Cl)cc1F)CN1CCOCC1 (configuration not stated) | -6.388%
- Brc1ccc(CN2CCNCC2)nc1 | 4.597%
- CN1CCC(Oc2cc(N)ccn2)CC1 | -2.144%
- CC(C)Cc1cc(CNC(=O)CSc2cnn[nH]2)no1 | 32.99%
- CNS(=O)(=O)c1ccc(NC2CCC2)cc1OC | -10.34%
- COCCn1cc(CN)cn1 | -21.12%
- CCN(CC)c1ccc(NC(=O)N(C)C)cn1 | -9.388%
- CNc1cc(C(=O)NCCNc2cccnc2)ccn1 | 8.324%
- CN(C)S(=O)(=O)N1CCC(Oc2ccccc2Cl)CC1 | 72.89%
- Cc1cc(C(=O)N[C@@H]2CC[C@@H](N)C2)ccc1O | 1.967%
- CCc1nc(COC2CCNCC2)no1 | -0.1058%
- CCC(=O)N1CCN(C(=O)Cc2ccc(Br)s2)CC1 | 20.85%
- CCCN(CCC)S(=O)(=O)N1CCC2(CC1)OCCO2 | 37.95%
- CN(C)Cc1cccc(NC(=O)c2[nH]ncc2Br)c1 | 44.61%
- O=C(NC1=NCCS1)c1cccnc1OCC(F)(F)F | 1.812%
- NC1CCCN(c2ccccc2F)C1 (configuration not stated) | -10.46%
- CN(C)c1cc(CNC(=O)c2ccccc2F)ccn1 | 31%
- Cn1ccsc1=NC(=O)c1cc(O)nc2ccccc12 | -27.73%
- CN1CC2(CCN(Cc3nccs3)CC2)OC1=O | -19.61%
- Cc1noc(C)c1C(=O)NC1CCN(CC2CC2)CC1 | -3.975%
- CCO[C@H]1CN(Cc2ccc3c(c2)CCO3)C[C@@H]1O | 6.628%
- CN1CCC(N(C)C(=O)c2ccc3c(c2)CCO3)CC1 | -0.4772%
- NC(=O)CN1CCN(c2cccc(Cl)c2)CC1 | 7.368%
- CC(C(=O)Nc1sccc1C(N)=O)N1CCCC1 (configuration not stated) | -1.873%

For reference, 3 entries once more:

Compound	Percent Effect
Cc1cnc(C(=O)N2CCC(C)CC2)cn1	46.63
CNc1cc(C(=O)NCCNc2cccnc2)ccn1	8.324
CCC(NC(=O)c1cnc(SC)nc1)c1ccnn1C (configuration not stated)	15.74

From ChEMBL document CHEMBL3988442, “University of Dundee, Small-Polar-MMV Screening Library” (2021).